{"source": "PubChem BioAssay AID1259405, NCATS | 2018", "screen": "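Mouse-designed siRNAs used to find CHO productivity engineering targets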 (primary screen)", "cell system": "Chinese hamster CHO-K1 ovary cells with stable secreted eGFP expression", "knock-down reagent": "single siRNA against mouse genes, 0.8 pmol siRNA per well (2 µl of 400 nM stock)", "timing": "3 days", "measured": "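Percent of the per-plate non-targeting control median for intracellular GFP per well by laser scanning cytometry and for cell viability by ATP luminescence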", "reading the numbers": "GFP, % of control: higher = more GFP per well, higher productivity; viability (ATP), % of control: higher = more viable cells (more ATP)", "rule for the call": "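a knock-down is called active if GFP reaches 120% or more of non-targeting control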", "note": "This is one part, drawn at random, of about 50,000 reagents tested. Of all reagents, about 4,000 (8%) got an active call. 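Mouse siRNA library applied to hamster cells; one well for each siRNA.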 Unmarked entries are inactive. No sequences are given here."}
{"gene knocked down":"Brca1","PubChem SID":"SID363555316","GFP, % of control":"136 (active)","viability (ATP), % of control":88.7}
{"gene knocked down":"Brca1","PubChem SID":"SID363563977","GFP, % of control":93.6,"viability (ATP), % of control":75.1}
{"gene knocked down":"Brca1","PubChem SID":"SID363587523","GFP, % of control":111,"viability (ATP), % of control":105}
{"gene knocked down":"Sox3","PubChem SID":"SID363573823","GFP, % of control":"139 (active)","viability (ATP), % of control":119}
{"gene knocked down":"Sox3","PubChem SID":"SID363581567","GFP, % of control":111,"viability (ATP), % of control":70.4}
{"gene knocked down":"Sox3","PubChem SID":"SID363584031","GFP, % of control":77.6,"viability (ATP), % of control":85.2}
{"gene knocked down":"Abhd16a","PubChem SID":"SID363546582","GFP, % of control":79.8,"viability (ATP), % of control":32.7}
{"gene knocked down":"Abhd16a","PubChem SID":"SID363548338","GFP, % of control":63.7,"viability (ATP), % of control":79.2}
{"gene knocked down":"Abhd16a","PubChem SID":"SID363560516","GFP, % of control":79.4,"viability (ATP), % of control":71.7}
{"gene knocked down":"Tubgcp4","PubChem SID":"SID363541087","GFP, % of control":58.5,"viability (ATP), % of control":47.6}
{"gene knocked down":"Tubgcp4","PubChem SID":"SID363555714","GFP, % of control":95.5,"viability (ATP), % of control":89.6}
{"gene knocked down":"Tubgcp4","PubChem SID":"SID363566003","GFP, % of control":44.9,"viability (ATP), % of control":66.3}
{"gene knocked down":"Ackr4","PubChem SID":"SID363571207","GFP, % of control":85.1,"viability (ATP), % of control":63.3}
{"gene knocked down":"Ackr4","PubChem SID":"SID363571559","GFP, % of control":50.4,"viability (ATP), % of control":42.5}
{"gene knocked down":"Ackr4","PubChem SID":"SID363571911","GFP, % of control":34,"viability (ATP), % of control":57.1}
{"gene knocked down":"4921522P10Rik","PubChem SID":"SID363542578","GFP, % of control":75.7,"viability (ATP), % of control":79.8}
{"gene knocked down":"4921522P10Rik","PubChem SID":"SID363552069","GFP, % of control":41,"viability (ATP), % of control":40.5}
{"gene knocked down":"4921522P10Rik","PubChem SID":"SID363559674","GFP, % of control":97.1,"viability (ATP), % of control":76.9}
{"gene knocked down":"Sbno2","PubChem SID":"SID363545512","GFP, % of control":104,"viability (ATP), % of control":88.4}
{"gene knocked down":"Sbno2","PubChem SID":"SID363549025","GFP, % of control":67.4,"viability (ATP), % of control":83.7}
{"gene knocked down":"Sbno2","PubChem SID":"SID363562831","GFP, % of control":93.3,"viability (ATP), % of control":79.4}
{"gene knocked down":"Mief2","PubChem SID":"SID363555129","GFP, % of control":34.8,"viability (ATP), % of control":44.1}
{"gene knocked down":"Mief2","PubChem SID":"SID363568576","GFP, % of control":105,"viability (ATP), % of control":35.2}
{"gene knocked down":"Mief2","PubChem SID":"SID363586635","GFP, % of control":86.1,"viability (ATP), % of control":48.7}
{"gene knocked down":"Fancd2os","PubChem SID":"SID363542573","GFP, % of control":73.2,"viability (ATP), % of control":55.3}
{"gene knocked down":"Fancd2os","PubChem SID":"SID363552064","GFP, % of control":85.7,"viability (ATP), % of control":45.5}
{"gene knocked down":"Fancd2os","PubChem SID":"SID363559669","GFP, % of control":110,"viability (ATP), % of control":115}
{"gene knocked down":"Septin4","PubChem SID":"SID363572406","GFP, % of control":95.4,"viability (ATP), % of control":78.6}
{"gene knocked down":"Septin4","PubChem SID":"SID363574166","GFP, % of control":48.2,"viability (ATP), % of control":51.6}
{"gene knocked down":"Pcdhb18","PubChem SID":"SID363573266","GFP, % of control":85.1,"viability (ATP), % of control":90.3}
{"gene knocked down":"Pcdhb18","PubChem SID":"SID363588505","GFP, % of control":84,"viability (ATP), % of control":69.7}
{"gene knocked down":"Usp49","PubChem SID":"SID363574482","GFP, % of control":86.3,"viability (ATP), % of control":87.6}
{"gene knocked down":"Usp49","PubChem SID":"SID363575538","GFP, % of control":47.3,"viability (ATP), % of control":46.5}
{"gene knocked down":"Usp49","PubChem SID":"SID363580114","GFP, % of control":74.3,"viability (ATP), % of control":79.5}
{"gene knocked down":"Jam3","PubChem SID":"SID363555282","GFP, % of control":102,"viability (ATP), % of control":69.2}
{"gene knocked down":"Jam3","PubChem SID":"SID363563943","GFP, % of control":47.3,"viability (ATP), % of control":66.6}
{"gene knocked down":"Jam3","PubChem SID":"SID363587489","GFP, % of control":86.9,"viability (ATP), % of control":102}
{"gene knocked down":"Cby2","PubChem SID":"SID363562100","GFP, % of control":64,"viability (ATP), % of control":79.3}
{"gene knocked down":"Cby2","PubChem SID":"SID363567238","GFP, % of control":94.8,"viability (ATP), % of control":32}
{"gene knocked down":"Cby2","PubChem SID":"SID363584595","GFP, % of control":43.4,"viability (ATP), % of control":45.6}

5 entries from above, limited to “GFP, % of control”:
Abhd16a [SID363560516]: 79.4
Tubgcp4 [SID363541087]: 58.5
Tubgcp4 [SID363555714]: 95.5
Tubgcp4 [SID363566003]: 44.9
Ackr4 [SID363571207]: 85.1
